According to patent US20230340498A1, “COMPOSITIONS AND METHODS FOR INDUCIBLE ALTERNATIVE SPLICING REGULATION OF GENE EXPRESSION” (The Children's Hospital of Philadelphia, priority 2020, published 2023):
Some results were stated once for a whole list of compounds, not compound by compound.

Tested on: SMN2 exon 7
Assay: SMN2-on cassette exon 7 splicing assay (RT-PCR) in transfected HEK293 cells
Assay type: cell-based, Human
Details: SMN2-on minigene
Experimental: Cell culture, transfection, and LMI070/RG7800 treatment. Human embryonic kidney (HEK293) cells (obtained from CHOP Research Vector Core stock) were maintained in DMEM media containing 10% Fetal Bovine Serum (FBS), 1% L-Glutamine and 1% penicillin/streptomycin at 37° C. with 5% CO2. Cells were cultured in 24 well plates and transfected at 80-90% confluence using Lipofectamine 2000 transfection reagent, according to the manufacturer’s protocol. For all experiments, 4 hours after plasmid transfection, cells were treated with LMI070 (MedChemExpress, HY-19620, suspended in DMSO) or RG7800 (MedChemExpress, HY-101792A, suspended in H2O) at the indicated concentrations. Cells were tested for mycoplasma by Research Vector Core. […]
RNA extraction, RT-PCR, and Splicing assays. […] To determine HTT expression levels after transfection, RNA samples were quantified by spectrophotometry and subsequently cDNAs generated from […] of total RNA with random hexamers (TaqMan RT reagents, Applied Biosystems). […] Relative HTT gene expression was determined using the ddCt method. […] Splicing was determined by PCR using the Phusion High-Fidelity polymerase (Thermofisher) and PCR products separated on a 2.5% agarose gel pre-stained with EtBr and spliced-in and spliced-out band densitometry performed using with the ChemiDoc Imaging System (BioRad) and Image Lab analysis software. […]

Compound: CC1(C)CC(Oc2ccc(-c3ccc(-c4cn[nH]c4)cc3O)nn2)CC(C)(C)N1 [LMI070, 5-(1H-Pyrazol-4-yl)-2-(6-((2,2,6,6-tetramethylpiperidin-4-yl)oxy)pyridazin-3-yl)phenol]
- drug concentration at which a complete splicing switch is evident: greater than 1 µM

Compound: CCc1nc(C)cn2nc(-c3cc(=O)n4cc(C5CCN(C)CC5)cc(C)c4n3)cc12 [RG7800]
- drug concentration at which a complete splicing switch is evident: greater than 1 µM
